Measurements from paper PMC2265061, “Compound Cytotoxicity Profiling Using Quantitative High-Throughput Screening” (Environmental Health Perspectives, 2007).

How the values were obtained:
Test in all cases: cells
[1] = system: BJ; conditions: Homo sapiens, 40 h
Description: (§1) We measured cell viability using a luciferase-coupled ATP quantitation assay (CellTiter-Glo; Promega, Madison, WI). In this assay, luminescent signal is proportional to amount of ATP and thus to the number of metabolically competent cells; cell injury and death result in a dramatic decrease in intracellular ATP levels ([Crouch et al. 1993]). Cells were dispensed at 1,000–2,000 cells/5 μL/well in tissue-culture treated 1,536-well white/solid bottom assay plates (Greiner Bio-One North America, Monroe, NC) using a Flying Reagent Dispenser (Aurora Discovery, Carlsbad, CA). All but Jurkat cells (which are grown in suspension) were incubated at 37°C for 5–6 hr to allow for cell attachment, followed by addition of compounds via pin tool (Kalypsys, San Diego, CA). […] At the end of the incubation period, 5 μL of CellTiter-Glo reagent was added, plates were incubated at room temperature for 30 min, and the luminescence intensity of each well was determined using a ViewLux plate reader (PerkinElmer, Shelton, CT).
(§2) Compound formatting and qHTS were performed as described previously ([Inglese et al. 2006]).
(§3) Analysis of compound concentration–response data was performed as previously described ([Inglese et al. 2006]). […] Concentration–response titration points for each compound were fitted to the Hill equation ([Hill 1910]), yielding concentrations of half-maximal inhibition (IC50) and maximal response (efficacy) values. […] Class 1 or 2 compounds were further divided into subclasses based on efficacy and quality of fit (R^2). Compounds with R^2 > 0.9 and high (> 80%) efficacy were designated as subclass a, and compounds with R^2 > 0.9 and low efficacies (30–80%) as subclass b. […] Compound activity correlations between different assays or experiments were assessed by calculating the Pearson correlation coefficient. Hierarchical clustering of compound activity patterns across different assays was performed within Spotfire DecisionSite 8.2 (Spotfire Inc., Cambridge, MA) using the correlation of log IC50 values as the similarity metric.

[2] = system: H-4-II-E; conditions: Rattus norvegicus, H4IIE, 40 h
Description: as §1, §2, §3

[3] = system: HUV-EC-C; conditions: Homo sapiens, 40 h
Description: as §1, §2, §3

[4] = system: Jurkat; conditions: mean ± SD
Description: as §1, §2, §3

[5] = system: MRC-5; conditions: Homo sapiens, MRC5, 40 h
Description: as §1, §2, §3

[6] = system: Mesangial; conditions: Homo sapiens, 40 h
Description: as §1, §2, §3

[7] = system: N2a; conditions: Mus musculus, 40 h
Description: as §1, §2, §3

[8] = system: SH-SY5Y; conditions: Homo sapiens, 40 h
Description: as §1, §2, §3

[9] = system: SK-N-SH; conditions: Homo sapiens, 40 h
Description: as §1, §2, §3

[10] = system: HEK293; format: cell-based; conditions: Homo sapiens; HEK293, 40 hr, mean ± SD
Description: as §1, §2
(§4) Analysis of compound concentration–response data was performed as previously described ([Inglese et al. 2006]). […] Compound activity correlations between different assays or experiments were assessed by calculating the Pearson correlation coefficient. […]

[11] = system: NIH 3T3; format: cell-based; conditions: Mus musculus, NIH3T3; NIH 3T3, 40 hr, mean ± SD
Description: as §1, §2, §4

CC/C(=C(\c1ccccc1)c1ccc(OCCN(C)C)cc1)c1ccccc1 [tamoxifen]
IC50 [1]: 79 ± 10 µM
IC50 [2]: 63 ± 15 µM
IC50 [3]: 46 ± 5 µM
IC50 ([4]; 40 hr): 8 ± 1 µM
IC50 ([4]; Homo sapiens, 40 h): 8.3 µM
IC50 [5]: 68 ± 17 µM
IC50 [6]: 79 ± 10 µM
IC50 [7]: 72 ± 13 µM
IC50 [8]: 65 ± 15 µM
IC50 [9]: 57 ± 13 µM
IC50 [10]: 79 ± 10 µM
IC50 [11]: 79 ± 4 µM
